Test results taken from US20240166587A1, “SARS-CoV-2 inhibitors - artificial compounds” (priority 2021, published 2024).
Like-named read-outs stand apart in the source and are kept apart here. Some entries share one result that the patent states for a list of compounds.

Test system: SARS-CoV-2
Type: cell-based
Conditions: 48 hours

Compound	ct values, qPCR of SARS-CoV-2 in supernatant (25 μM)	ct values, qPCR of SARS-CoV-2 in supernatant (50 μM)
Oc1cc(/C=C/c2cc(O)c(O)c(O)c2)cc(O)c1O [Compound X, 3,3′,4,4′,5,5′-hexahydroxy-trans-stilbene]	above 30	above 30
(−) epigallocatechin gallate [Compound IV]		above 30
(−)-gallocatechin gallate [VIII]		above 30
